Patent US20100098681A1
Results are given in words; binding and its absence hold for the method and conditions named. Some binding calls cover weakened binding; strength is not graded here.

By UniProt entry, the sequences of proteins in these tests, tags left out. Residues count along the entry.
UniProt P01133, residues 971-1023: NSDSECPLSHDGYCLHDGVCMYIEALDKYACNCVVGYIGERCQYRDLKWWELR

How the values were obtained:
[1] = biological target: sEGFR-MMB (dimeric sEGFR mimetibody) (human); assay: mock phage panning on sEGFR-MMB, three rounds, PCR screening
[2] = biological target: sEGFR-MMB (dimeric sEGFR mimetibody) (human); assay: phage ELISA, coated sEGFR-MMB
[3] = biological target: sEGFR-MMB (dimeric sEGFR mimetibody) (human); assay: phage ELISA, luminescence; sEGFR-MMB coated on the wells [panel A]
[4] = biological target: biotinylated sEGFR-MMB (human); assay: phage ELISA, biotinylated sEGFR-MMB on streptavidin
[5] = biological target: Control-MMB (CNTO 360) (Homo sapiens (Human)) [IgG part: P0DOX5]; assay: phage ELISA, luminescence; Control-MMB coated on the wells [panel A]
[6] = biological target: biotinylated sEGFR-MMB (human); assay: phage ELISA, luminescence; biotinylated receptor captured on streptavidin [panel C]

Row | Substance | binding [1] | binding [2] | binding [3] | binding [4] | binding [5] | binding [6]
1 | Phage displaying EGF (coat protein not stated) (from UniProt P01133 971-1023) (ligand) | binds |  |  |  |  | 
2 | pIII EGF-phage (from UniProt P01133 971-1023; P69168 19-424) (ligand) |  | binds |  |  |  | 
3 | pIX EGF-phage (from UniProt P01133 971-1023; P69538 1-32) (ligand) |  | binds | binds | binds | no binding | binds
